Test results reported in article PMC4191393, “Selective microRNA uridylation by Zcchc6 (TUT7) and Zcchc11 (TUT4)”.
Weaker means in comparison with the reference protein, sequence or condition of that experiment. Tags and fusion partners may be left off the protein sequences shown.

Target: T1, r.Zcchc11 (TUT4) (Homo sapiens) (UniProt Q5TAX3)
T1 sequence (looked up): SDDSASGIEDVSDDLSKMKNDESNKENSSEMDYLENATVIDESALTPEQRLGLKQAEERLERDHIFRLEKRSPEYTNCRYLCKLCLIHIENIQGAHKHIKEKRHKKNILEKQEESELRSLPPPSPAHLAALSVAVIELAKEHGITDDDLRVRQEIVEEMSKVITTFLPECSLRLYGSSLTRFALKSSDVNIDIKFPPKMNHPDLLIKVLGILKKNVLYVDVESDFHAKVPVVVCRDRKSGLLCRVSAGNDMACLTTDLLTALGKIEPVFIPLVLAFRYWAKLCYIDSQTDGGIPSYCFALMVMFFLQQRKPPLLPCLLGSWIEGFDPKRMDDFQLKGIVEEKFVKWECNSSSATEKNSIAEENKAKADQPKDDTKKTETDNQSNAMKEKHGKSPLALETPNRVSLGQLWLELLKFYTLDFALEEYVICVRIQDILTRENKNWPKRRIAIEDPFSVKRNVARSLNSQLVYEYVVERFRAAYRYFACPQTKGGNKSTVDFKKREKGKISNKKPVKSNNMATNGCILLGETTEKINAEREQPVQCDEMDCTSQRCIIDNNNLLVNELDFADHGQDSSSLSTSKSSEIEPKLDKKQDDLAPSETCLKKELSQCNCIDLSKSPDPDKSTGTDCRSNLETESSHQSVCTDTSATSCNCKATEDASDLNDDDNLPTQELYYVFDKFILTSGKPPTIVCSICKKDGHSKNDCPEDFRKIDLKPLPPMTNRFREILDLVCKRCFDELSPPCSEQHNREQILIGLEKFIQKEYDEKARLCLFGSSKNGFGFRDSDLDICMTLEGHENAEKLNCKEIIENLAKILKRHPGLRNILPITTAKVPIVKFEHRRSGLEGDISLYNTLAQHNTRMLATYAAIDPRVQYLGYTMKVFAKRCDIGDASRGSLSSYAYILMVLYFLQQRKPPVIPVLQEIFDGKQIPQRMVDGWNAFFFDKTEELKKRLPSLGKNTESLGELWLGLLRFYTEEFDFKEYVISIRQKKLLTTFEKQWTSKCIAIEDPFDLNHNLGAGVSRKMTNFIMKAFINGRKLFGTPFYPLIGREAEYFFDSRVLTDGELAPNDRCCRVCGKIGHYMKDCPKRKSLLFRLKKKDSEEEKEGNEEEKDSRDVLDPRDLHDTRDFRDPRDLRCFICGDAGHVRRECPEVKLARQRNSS
Experiment: EMSA
Conditions: 2 mM Mg2+, RNA 2.5 nM; EMSA: 500 mM NaCl, 20 mM HEPES pH 7.5, 2 mM MgCl2, 5% glycerol, 1 mM TCEP; 10 ul, 3-50 ng protein, 2.5 nM RNA; native 12% PAGE in 0.5x TBE; temperature not stated; recombinant protein; residues 225-1384; protein details: N-terminal His6-Trx, removed with TEV; label: 5'-32P

“CUGUACAGGCCACUGCCUUGC [let-7g passenger]”: binds more weakly.
